Results on three molecules are retold here after article PMC11884132.

The chains behind the UniProt entries cited, without tags or fusion partners.
UniProt Q12834: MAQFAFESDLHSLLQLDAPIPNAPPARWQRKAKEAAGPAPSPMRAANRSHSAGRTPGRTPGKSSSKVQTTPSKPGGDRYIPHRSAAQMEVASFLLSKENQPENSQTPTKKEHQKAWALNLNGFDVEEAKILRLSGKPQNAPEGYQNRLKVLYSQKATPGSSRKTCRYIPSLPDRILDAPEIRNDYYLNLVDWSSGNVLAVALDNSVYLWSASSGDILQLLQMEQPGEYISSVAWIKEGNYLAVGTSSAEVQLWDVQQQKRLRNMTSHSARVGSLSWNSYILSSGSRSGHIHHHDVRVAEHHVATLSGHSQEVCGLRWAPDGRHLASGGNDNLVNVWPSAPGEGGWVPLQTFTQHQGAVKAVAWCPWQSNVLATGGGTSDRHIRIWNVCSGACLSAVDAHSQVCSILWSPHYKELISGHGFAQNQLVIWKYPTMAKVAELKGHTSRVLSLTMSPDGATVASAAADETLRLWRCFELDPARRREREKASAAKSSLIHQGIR

These are yes or no findings as the source states them, for the method shown. Binding seen in cells or lysates may run through a third protein. Some entries that bind do so weakly or less than the wild type. For part of these data: Where a sequence is shown, tags or fusion partners need not be part of it.

For assay [1], the target named is T1, Myc-CCDC69 (UniProt A6NI79).
T1 sequence: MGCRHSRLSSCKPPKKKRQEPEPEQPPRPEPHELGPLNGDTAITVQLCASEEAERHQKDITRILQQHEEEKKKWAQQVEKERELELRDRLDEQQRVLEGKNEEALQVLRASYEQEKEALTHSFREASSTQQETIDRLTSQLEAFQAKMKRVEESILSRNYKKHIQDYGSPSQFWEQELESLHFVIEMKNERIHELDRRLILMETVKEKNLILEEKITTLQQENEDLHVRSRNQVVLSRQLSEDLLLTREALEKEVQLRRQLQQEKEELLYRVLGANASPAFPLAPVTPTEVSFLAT
The experiment in a line: co-IP; 293 T cells co-transfected with Flag-CDC20 and MYC-CCDC69; lysates incubated overnight at 4 °C with anti-Flag or anti-MYC antibody; eluted with 1 × SDS buffer; western blot. Background: A western blot detects proteins with antibodies after separation by electrophoresis.

Assay [2] has as its target CDC20 (in 293 T cells, precipitated by the anti-CDC20 antibody) (human (endogenous in 293 T)) (UniProt Q12834). The experiment in a line: co-IP; 293 T cells; immunoprecipitation with anti-CDC20 antibody, IgG control; western blot for CDC20 and CCDC69.
In assay [3] the target is Flag-CDC20 (1–499) (UniProt Q12834). Description: co-IP; 293 T cells co-transfected with Flag-CDC20 and MYC-CCDC69; lysates incubated overnight at 4 °C with anti-Flag or anti-MYC antibody; eluted with 1 × SDS buffer; western blot.

As for “Flag-CDC20 (1–499) (from UniProt Q12834 1-499)”, in assay [1], the binding entry is “binds”.

B1: CCDC69 (in 293 T cells) (protein, UniProt A6NI79 1-296)
chain: T1 sequence
Turning to B1, the binding result in assay [2] was “binds”.

B2: Myc-CCDC69 (protein, UniProt A6NI79 1-296)
chain: T1 sequence
Consider B2, for which the binding entry in assay [3] is reported as “binds”.
